Measurements: PubChem BioAssay AID2685 (National Center for Advancing Translational Sciences (NCATS), 2010)
Some of the results follow. Shown are side measurements of this screen, not its main read-out; they come without a call. Most of these compounds were active or inconclusive in the main read-out, so they are no random draw. Words in brackets tell the shape of the fitted curve; partial curves, single points and poor fits give uncertain potencies.

Assay: qHTS Assay for Lipid Storage Modulators in Drosophila S3 Cells;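 as to cell number change: cells counted by Cell Tracker Red CMTPX staining in the red channel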
Conditions: BODIPY lipid droplet fluorescence, 18-24 h; for cell number change: measured here: cell count max response, cells fed with added oleic acid
Outline: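 Drosophila S3 cells loaded with oleic acid (400 uM, as added) and compounds at several concentrations; lipid droplets imaged by 488-nm laser-scanning cytometry, 500–530 nm intensity and object ratio to cell channel. Percent activity normalized to 20 uM Triacsin C.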

[1] = measured here: cell number channel AC50, cells fed with added oleic acid
[2] = measured here: lipid fluorescence (Fed channel) AC50, cells fed with added oleic acid

Cc1cccc([N+](=O)[O-])c1NC(=O)CSc1nnc2ccccn12
cell number change: -31.2%
AC50 [1]: 32.6 µM [falling, single point]
AC50 [2]: 29.1 µM [falling, single point]

COc1cccc(NC(=O)COC(=O)Cn2c(C)csc2=O)c1
cell number change: -12.2%
AC50 [2]: 14.6 µM [falling, partial curve]

Cn1c(CCN2CCN(c3ccccn3)CC2)nc2cc(NC(=O)COc3ccccc3)ccc21
cell number change: 9.92%
AC50 [1]: 6.51 µM [rising, single point]
AC50 [2]: 6.51 µM [rising, single point]

COc1cccc(OCc2cc(C(=O)N(C)Cc3nc(C)cs3)no2)c1
cell number change: 6.07%

CC(=O)c1ccc(OCC(=O)N2CCN(S(=O)(=O)c3ccc(Br)s3)CC2)cc1
cell number change: -6.52%

CCOc1ccc(S(=O)(=O)N(C)C2CCCCC2)cc1
AC50 [2]: 7.31 µM [falling, single point]

O=C(O)c1ccc(OCc2occc2C(=O)O)cc1
cell number change: 9.17%
AC50 [1]: 0.103 µM [falling, full curve]
AC50 [2]: 0.116 µM [falling, full curve]

C=CCn1c(=O)c2ccccc2n2c(SCC(=O)Nc3sc(C(=O)N(CC)CC)c(C)c3C(=O)OCC)nnc12
AC50 [1]: 2.59 µM [rising, partial curve]
AC50 [2]: 0.00461 µM [rising, full curve, poor fit]

Cc1csc(N(C(=O)c2ccc(S(=O)(=O)N(C)C)cc2)c2ccccc2)n1
AC50 [1]: 1.3 µM [rising, full curve]
AC50 [2]: 1.03 µM [rising, partial curve]

COc1ccc(S(=O)(=O)N(Cc2cc3cc(C)ccc3[nH]c2=O)CC2CCCO2)cc1 (stereo unspecified)
cell number change: 4.1%

N/C(=N\OC(=O)COc1ccc(Cl)cc1Br)c1ccncc1
cell number change: -16.6%
AC50 [2]: 0.651 µM [falling, partial curve, poor fit]

NC(CSCc1cccc(Br)c1)C(=O)O (stereo unspecified)
cell number change: 69.3%
AC50 [1]: 29.1 µM [rising, single point]

CCOc1cc(C(=O)Nc2ncccn2)cc(OCC)c1OCC
cell number change: -3.98%
AC50 [2]: 0.116 µM [falling, full curve, poor fit]

Cc1csc(NC(=O)c2ccc(C)c(S(=O)(=O)N3CCOCC3)c2)n1
AC50 [2]: 29.1 µM [falling, single point]

CCOc1ccc(S(=O)(=O)Nc2ccn(C)n2)cc1
cell number change: 0.518%
AC50 [2]: 1.64 µM [rising, partial curve]

CC(C)c1ccccc1NC(=O)COC(=O)CCN1C(=O)/C(=C\C=C\c2ccccc2)SC1=S
cell number change: 13.9%

CC(=O)c1c(C)nc2ccc(Cl)cn12
AC50 [1]: 2.06 µM [rising, partial curve]
AC50 [2]: 0.517 µM [rising, single point]

COc1ccc(S(=O)(=O)NCCc2cc3ccc(C)c(C)c3[nH]c2=O)cc1
cell number change: -5.26%

COc1ccccc1C(=O)NC(CCSC)C(=O)NC1CCCCCC1 (stereo unspecified)
cell number change: 51.9%
AC50 [1]: 25.9 µM [rising, single point]

O=C(COc1ccc2c3c(c(=O)oc2c1)CCC3)NCc1ccccn1
cell number change: -19.5%
AC50 [2]: 29.1 µM [falling, single point]

COc1ccc(-c2cc(C(=O)Nc3c(C)nn(Cc4ccc(Cl)cc4)c3C)no2)cc1
cell number change: -62.7%
AC50 [1]: 23.1 µM [falling, partial curve, poor fit]
AC50 [2]: 23.1 µM [falling, partial curve]

CCOC(=O)c1ccc(-n2c(C)nc3c(cnn3-c3ccccc3Cl)c2=O)cc1
cell number change: -37.5%
AC50 [1]: 13 µM [falling, partial curve]
AC50 [2]: 16.4 µM [falling, single point]

Cc1ccccc1NC(=O)c1nc(S(C)(=O)=O)ncc1Cl
cell number change: -37.8%
AC50 [1]: 4.11 µM [falling, full curve, poor fit]
AC50 [2]: 0.731 µM [falling, full curve]

O=c1nc(C(F)(F)F)nc2ccccn12
cell number change: 128%

CC(c1nccs1)N(C)C(=O)CCc1nnc(CCc2ccccc2)o1 (stereo unspecified)
cell number change: 4.89%
AC50 [2]: 0.164 µM [falling, full curve, poor fit]

CCCOc1ccc(CN(C(=O)c2cccc(OC)c2)C2CCS(=O)(=O)C2)cc1 (stereo unspecified)
AC50 [2]: 29.1 µM [falling, single point]

CCOC(=O)N1CCN(CCC(=O)Nc2ccc(Br)cc2)CC1
cell number change: 43.2%
AC50 [1]: 9.2 µM [rising, partial curve]
AC50 [2]: 16.4 µM [rising, partial curve]

Fc1ccc(NC(=S)Nc2ccc(Br)cc2)cc1
cell number change: -33.9%
AC50 [1]: 0.0206 µM [falling, full curve, poor fit]
AC50 [2]: 29.1 µM [falling, single point]

COc1ccc(NC(=O)C2CCCN(S(=O)(=O)c3cccc4nonc34)C2)cc1 (stereo unspecified)
cell number change: 30.4%
AC50 [1]: 2.31 µM [rising, full curve, poor fit]
AC50 [2]: 10.3 µM [rising, partial curve]

COc1ccc(OC)c(S(=O)(=O)n2nc(-c3ccccc3)cc2N)c1
AC50 [1]: 0.461 µM [rising, full curve]

Cc1ccc(NC(=O)CCCNC(=O)c2ccc(Cl)cc2)nc1
cell number change: 0.983%
AC50 [2]: 0.58 µM [rising, single point]

Cc1ccc(NC2SC(=O)N(Cc3cccc(C(=O)O)c3)C2=O)c(C)c1 (stereo unspecified)
cell number change: 11.3%

O=C(c1ccccc1)c1ccc(OCC(O)CNCc2ccc(Cl)cc2)cc1 (stereo unspecified)
cell number change: -71.7%
AC50 [1]: 29.1 µM [falling, single point]
AC50 [2]: 29.1 µM [falling, single point]

CCc1nc(NC2CCCCC2)c(C#N)c2c1COC(C)(C)C2
cell number change: -27.5%
AC50 [2]: 32.6 µM [falling, single point]

Cc1cccc(/C=C2\CCC(C3CCCC3)C2=O)c1 (stereo unspecified)
cell number change: 1.48%
AC50 [2]: 16.4 µM [rising, partial curve, poor fit]

NC(=S)N/N=C/c1ccc(-c2cccc([N+](=O)[O-])c2)o1
cell number change: -9.96%

Cc1ccc(S(=O)(=O)NCCC(=O)Nc2ccncc2)cc1C
cell number change: 41%
AC50 [1]: 5.8 µM [rising, full curve, poor fit]

COC(=O)c1cc(NC(=O)Nc2ccccc2)ccc1Cl
cell number change: 8.47%

COc1cccc(NS(=O)(=O)c2ccc3c(c2)C2C=CCC2C(c2ccc(C(=O)O)cc2)N3)c1 (stereo unspecified)
cell number change: -1.53%
AC50 [2]: 0.0517 µM [rising, full curve, poor fit]

CCN(CC)S(=O)(=O)c1ccc2oc(C(=O)NCc3ccc(C)cc3)c(C)c2c1
cell number change: -1.84%
AC50 [1]: 3.66 µM [rising, single point]
AC50 [2]: 6.51 µM [rising, single point]

Cc1ccc(-n2nnnc2SCC(=O)NC(=O)Nc2ccc3c(c2)OCCO3)cc1
cell number change: -1.33%
AC50 [1]: 0.411 µM [falling, single point]

CCC1CCCCN1CCNC(=O)c1[nH]c(C)c(C(C)=O)c1C (stereo unspecified)
cell number change: -24.4%
AC50 [2]: 10.3 µM [falling, partial curve, poor fit]

Cc1cc(C(=O)OCC(=O)NCc2ccc(F)cc2)c2ccccc2n1
cell number change: -47.6%
AC50 [1]: 23.1 µM [falling, partial curve]
AC50 [2]: 2.59 µM [falling, full curve]

c1ccc(OCCCn2nnc(-c3cccnc3)n2)cc1
AC50 [1]: 2.91 µM [rising, partial curve]

COC(=O)CSc1nc(-c2ccccc2)cc(-c2ccco2)c1C#N
cell number change: -28.5%
AC50 [2]: 29.1 µM [rising, single point]

COc1cc(NS(C)(=O)=O)c(OC)cc1NC(=O)c1ccccc1
cell number change: 3.98%

CCOc1ccc(C(=O)NCC(=O)NCCCSc2ccccc2)cc1OCC
cell number change: 28.6%
AC50 [2]: 0.259 µM [rising, full curve, poor fit]

Cc1ccccc1OCc1nnc(SCC(=O)O)n1-c1ccccc1
cell number change: 2.55%
AC50 [1]: 2.31 µM [rising, partial curve, poor fit]

Cc1cc(C)c(OCC(=O)Nc2nc3ccccc3[nH]2)c(C)c1
cell number change: 48.2%

COc1cc(C(=O)NC(C)Cc2cccs2)cc(OC)c1OC (stereo unspecified)
cell number change: 27.1%

Nc1ccc(-n2cnc3cc([N+](=O)[O-])ccc32)cc1
cell number change: 33.7%
AC50 [1]: 1.46 µM [rising, full curve, poor fit]
AC50 [2]: 1.03 µM [rising, single point]

CCN(CC)C(=O)c1nc[nH]c1C(=O)N1CCN(C(=O)OC(C)(C)C)CC1
cell number change: 13%
AC50 [1]: 1.3 µM [falling, partial curve]
AC50 [2]: 1.46 µM [falling, partial curve]

Cc1nn(-c2ccccc2)c(C)c1C(=O)OCC(=O)c1c(N)n(CC(C)C)c(=O)n(C)c1=O
cell number change: -14.1%
AC50 [2]: 0.731 µM [rising, full curve]

Cc1c(C(=O)N2CCN(CC(=O)Nc3ccccc3Cl)CC2)oc2ccc(Br)cc12
cell number change: -47.1%
AC50 [1]: 29.1 µM [falling, single point]
AC50 [2]: 29.1 µM [falling, single point]

C/C(=N\Nc1nc2ccccc2c(=O)n1O)c1ccco1
cell number change: -6.38%
AC50 [2]: 5.8 µM [rising, single point]

CC(C)(C)NC(=O)CSc1nnc(-c2ccncc2)o1
cell number change: 122%
AC50 [1]: 29.1 µM [rising, single point]
AC50 [2]: 4.11 µM [rising, full curve]

C=CCN1C(=O)/C(=C\c2ccc(C)cc2)N=C1SCC(=O)NCCC
cell number change: -9.96%
AC50 [1]: 0.411 µM [rising, full curve]
AC50 [2]: 0.92 µM [rising, full curve]

COc1cc(/C=C/C(=O)O)ccc1OS(=O)(=O)c1c(C)c(C)cc(C)c1C
cell number change: -14.2%
AC50 [2]: 2.06 µM [rising, partial curve]
